Test results taken from US20110039770A1, “INHIBITORS OF PROTEIN KINASE C ISOFORMS AND USES THEREOF” (PHARMAGAP INC., priority 2005, published 2011).
These are yes or no findings as the source states them, for the method shown. Some binding calls cover weakened binding; strength is not graded here. Values belong to the binder of their own block, whether it stands above or below them.

By UniProt entry, the sequences of proteins in these tests, tags left out. Where a name states a change or a piece, a line headed by the entry shows the natural chain unless it says otherwise. Chains listed by the source or under a name are the forms on record and can include a tag or linker.
UniProt P05771: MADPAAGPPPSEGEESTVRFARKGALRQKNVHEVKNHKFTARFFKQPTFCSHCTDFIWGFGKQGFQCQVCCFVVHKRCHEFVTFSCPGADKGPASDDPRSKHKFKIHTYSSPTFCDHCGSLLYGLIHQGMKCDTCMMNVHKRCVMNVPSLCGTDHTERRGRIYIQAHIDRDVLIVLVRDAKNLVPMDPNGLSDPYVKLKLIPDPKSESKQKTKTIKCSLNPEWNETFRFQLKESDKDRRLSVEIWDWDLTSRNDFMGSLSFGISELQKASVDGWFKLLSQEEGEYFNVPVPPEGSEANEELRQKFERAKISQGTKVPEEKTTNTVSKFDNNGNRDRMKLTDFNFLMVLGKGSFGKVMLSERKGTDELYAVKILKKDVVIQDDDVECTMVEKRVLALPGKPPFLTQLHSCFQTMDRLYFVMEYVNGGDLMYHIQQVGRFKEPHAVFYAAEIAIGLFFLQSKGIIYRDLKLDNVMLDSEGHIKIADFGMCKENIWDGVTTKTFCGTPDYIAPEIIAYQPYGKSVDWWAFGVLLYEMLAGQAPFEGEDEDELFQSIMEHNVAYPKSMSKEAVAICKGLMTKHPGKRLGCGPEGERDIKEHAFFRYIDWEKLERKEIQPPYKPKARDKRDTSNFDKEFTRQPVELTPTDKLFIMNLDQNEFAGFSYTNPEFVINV
PKC-βII, purified isoform (P05771, form named): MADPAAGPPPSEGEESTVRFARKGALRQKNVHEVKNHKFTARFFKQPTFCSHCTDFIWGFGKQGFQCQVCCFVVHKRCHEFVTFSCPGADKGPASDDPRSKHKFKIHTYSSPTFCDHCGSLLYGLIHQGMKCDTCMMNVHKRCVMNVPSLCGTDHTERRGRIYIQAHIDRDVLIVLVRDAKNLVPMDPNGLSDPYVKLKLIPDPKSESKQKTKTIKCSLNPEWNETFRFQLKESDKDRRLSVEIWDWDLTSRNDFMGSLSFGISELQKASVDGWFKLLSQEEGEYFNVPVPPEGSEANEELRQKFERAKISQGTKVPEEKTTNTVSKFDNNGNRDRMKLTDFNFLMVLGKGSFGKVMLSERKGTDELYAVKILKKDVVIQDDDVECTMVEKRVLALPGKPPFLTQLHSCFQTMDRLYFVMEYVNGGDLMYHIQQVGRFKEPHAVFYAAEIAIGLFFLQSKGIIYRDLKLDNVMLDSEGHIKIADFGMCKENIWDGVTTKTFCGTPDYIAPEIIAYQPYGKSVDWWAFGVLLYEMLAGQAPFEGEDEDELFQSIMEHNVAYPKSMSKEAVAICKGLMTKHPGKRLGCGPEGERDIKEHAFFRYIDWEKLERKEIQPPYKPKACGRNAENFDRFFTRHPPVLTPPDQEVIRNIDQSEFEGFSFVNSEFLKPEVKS
PKC-βII in extracts of human cell lines (P05771, form named): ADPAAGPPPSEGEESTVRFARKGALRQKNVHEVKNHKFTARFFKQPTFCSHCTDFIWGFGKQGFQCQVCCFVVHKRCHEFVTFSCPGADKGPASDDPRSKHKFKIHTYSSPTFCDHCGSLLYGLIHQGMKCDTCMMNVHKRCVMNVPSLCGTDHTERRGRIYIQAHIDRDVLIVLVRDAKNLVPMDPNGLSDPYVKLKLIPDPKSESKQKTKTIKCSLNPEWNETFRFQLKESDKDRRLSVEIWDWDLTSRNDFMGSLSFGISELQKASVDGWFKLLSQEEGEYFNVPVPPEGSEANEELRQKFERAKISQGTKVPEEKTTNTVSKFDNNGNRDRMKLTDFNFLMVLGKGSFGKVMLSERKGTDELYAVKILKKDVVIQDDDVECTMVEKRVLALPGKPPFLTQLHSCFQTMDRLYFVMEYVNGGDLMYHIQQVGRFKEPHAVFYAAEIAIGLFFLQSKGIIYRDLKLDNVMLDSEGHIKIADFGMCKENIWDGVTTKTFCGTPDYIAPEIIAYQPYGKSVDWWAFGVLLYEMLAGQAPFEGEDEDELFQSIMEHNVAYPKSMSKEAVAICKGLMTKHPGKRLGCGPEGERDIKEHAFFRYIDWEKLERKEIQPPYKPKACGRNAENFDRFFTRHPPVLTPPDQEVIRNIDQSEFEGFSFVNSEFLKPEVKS
UniProt Q02156: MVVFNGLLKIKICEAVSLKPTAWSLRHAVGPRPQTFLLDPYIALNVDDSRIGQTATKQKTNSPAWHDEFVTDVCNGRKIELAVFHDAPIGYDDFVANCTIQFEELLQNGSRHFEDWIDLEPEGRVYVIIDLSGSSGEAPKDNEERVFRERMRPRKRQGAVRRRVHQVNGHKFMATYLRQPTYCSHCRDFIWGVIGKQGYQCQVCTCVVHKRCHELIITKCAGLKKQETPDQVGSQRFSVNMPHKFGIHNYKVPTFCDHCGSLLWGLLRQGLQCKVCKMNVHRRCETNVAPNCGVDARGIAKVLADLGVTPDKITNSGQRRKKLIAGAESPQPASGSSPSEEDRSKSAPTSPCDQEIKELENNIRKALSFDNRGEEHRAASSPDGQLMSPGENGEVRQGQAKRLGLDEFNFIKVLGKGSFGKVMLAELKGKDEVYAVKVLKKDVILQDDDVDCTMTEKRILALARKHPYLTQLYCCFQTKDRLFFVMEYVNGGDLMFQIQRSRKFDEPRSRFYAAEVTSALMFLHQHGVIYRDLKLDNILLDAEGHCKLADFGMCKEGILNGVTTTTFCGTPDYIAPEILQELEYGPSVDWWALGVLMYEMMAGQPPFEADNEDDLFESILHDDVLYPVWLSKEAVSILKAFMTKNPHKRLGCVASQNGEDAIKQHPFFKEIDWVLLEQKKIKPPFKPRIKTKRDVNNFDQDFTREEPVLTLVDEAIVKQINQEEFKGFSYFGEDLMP

Columns and labels:
PKC-α, purified isoform [1] = biological target: PKC-α, purified isoform (UniProt P17252); experiment: purified isoform competition ELISA, summary grade
[2] = biological target: PKC-βII, purified isoform (UniProt P05771); experiment: purified isoform competition ELISA, summary grade
PKC-βI, purified isoform [3] = biological target: PKC-βI, purified isoform (UniProt P05771); experiment: purified isoform competition ELISA, summary grade
[4] = biological target: PKC-βII (endogenous, IMR-32 lysate) (human) (UniProt P05771); experiment: Western competition Protocol B, IMR-32 extract
[5] = biological target: PKC-βII in extracts of human cell lines (human) (UniProt P05771); experiment: Western-blot competition, cell extracts, catalytic fragment band: PRE at 10X/20X the anti-PKC beta II primary antibody concentration competes with that antibody; band densitometry (lower band = PRE bound)
[6] = biological target: PKC-βII in extracts of human cell lines (human) (UniProt P05771); experiment: cell extract Western blot competition, summary grade
[7] = biological target: T1, PKC-ζ in extracts of human cell lines (human) (UniProt Q05513); experiment: as above
T1 sequence (looked up): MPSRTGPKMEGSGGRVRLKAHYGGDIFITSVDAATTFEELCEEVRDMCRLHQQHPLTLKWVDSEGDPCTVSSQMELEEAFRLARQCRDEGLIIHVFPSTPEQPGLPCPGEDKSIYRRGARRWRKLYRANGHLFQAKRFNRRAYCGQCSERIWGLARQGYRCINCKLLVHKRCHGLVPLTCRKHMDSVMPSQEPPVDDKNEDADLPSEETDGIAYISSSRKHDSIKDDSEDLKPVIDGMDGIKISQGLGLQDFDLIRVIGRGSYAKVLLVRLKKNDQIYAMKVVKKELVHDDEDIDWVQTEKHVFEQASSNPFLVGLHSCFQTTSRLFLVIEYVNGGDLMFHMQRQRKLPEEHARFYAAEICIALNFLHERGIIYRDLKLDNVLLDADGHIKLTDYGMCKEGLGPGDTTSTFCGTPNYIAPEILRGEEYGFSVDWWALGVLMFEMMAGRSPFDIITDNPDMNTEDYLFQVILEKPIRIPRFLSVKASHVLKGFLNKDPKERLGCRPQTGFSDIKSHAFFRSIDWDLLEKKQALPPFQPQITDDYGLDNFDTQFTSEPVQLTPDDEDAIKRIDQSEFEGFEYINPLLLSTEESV

PKC-α, purified isoform [8] = biological target: PKC-α, purified isoform (UniProt P17252); experiment: competitive ELISA, purified isoform
[9] = biological target: PKC-ε (endogenous, IMR-32 lysate) (human) (UniProt Q02156); experiment: Western competition Protocol B, IMR-32 extract
PKC-βI, purified isoform [10] = biological target: PKC-βI, purified isoform (UniProt P05771); experiment: competitive ELISA, purified isoform
[11] = biological target: PKC-βII in extracts of human cell lines (human) (UniProt P05771); experiment: Western-blot competition, cell extracts: PRE at 10X/20X the anti-PKC beta II primary antibody concentration competes with that antibody; band densitometry (lower band = PRE bound)
PKC-ε, purified isoform = PKC-ε, purified isoform (UniProt Q02156); experiment: purified isoform competition ELISA, summary grade
PKC-α, purified isoform [12] = biological target: PKC-α, purified isoform (UniProt P17252); experiment: competitive ELISA, purified isoforms
PKC-βI, purified isoform [13] = biological target: PKC-βI, purified isoform (UniProt P05771); experiment: competitive ELISA, purified isoforms

binding [5]: binds | binding [6]: binds
B3: PRE 12 (peptide)
peptide: KDAQNLI
modifications: N-terminal acetyl (Ac-); C-terminal amide (-NH2)

binding [2]: binds
B6: PRE 10 (peptide)
peptide: ISIGILNQADK
modifications: N-terminal acetyl (Ac-); C-terminal amide (-NH2)

binding (PKC-α, purified isoform [1]): binds
B8: PRE 11 (peptide)
peptide: RDAQNLIGISI
modifications: N-terminal acetyl (Ac-); C-terminal amide (-NH2)

binding [11]: binds | binding [6]: binds
B9: PRE 8 (peptide)
peptide: ILEDKGGDAQNLIGISI

The remaining lines, values behind:

B1: PRE 4 (peptide)
peptide: KDAQNLIGISI
modifications: N-terminal acetyl (Ac-); C-terminal amide (-NH2)
binding (PKC-α, purified isoform [1]): binds | binding [2]: binds | binding (PKC-βI, purified isoform [3]): binds | binding [4]: binds | binding [5]: binds | binding [6]: binds | binding [7]: no binding | binding (PKC-α, purified isoform [8]): binds

B2: PRE 2 (peptide)
peptide: KDAQNLIGISL
modifications: C-terminal amide (-NH2)
binding [9]: binds

B4: PRE 6 (peptide)
peptide: KDANQLIGISI
modifications: N-terminal acetyl (Ac-); C-terminal amide (-NH2)
binding (PKC-βI, purified isoform [3]): binds

B5: PRE 1 (peptide)
peptide: RRKKGGKDFVVKR
binding (PKC-βI, purified isoform [3]): binds | binding (PKC-βI, purified isoform [10]): binds

B7: PRE 7 (peptide)
peptide: ISIGILQNADK
modifications: N-terminal acetyl (Ac-); C-terminal amide (-NH2)
binding (PKC-α, purified isoform [1]): binds

B10: PRE 3 (peptide)
peptide: AKGIQEVKGGDAQNLIGISI
modifications: N-terminal acetyl (Ac-); C-terminal amide (-NH2)
binding (PKC-α, purified isoform [1]): binds | binding (PKC-βI, purified isoform [3]): binds | binding (PKC-ε, purified isoform): binds | binding [9]: binds | binding (PKC-α, purified isoform [12]): binds | binding (PKC-βI, purified isoform [13]): binds | binding (PKC-α, purified isoform [8]): binds | binding (PKC-βI, purified isoform [10]): binds

B11: PRE 5 (peptide)
peptide: AKGIQEVKGGKDAQNLIGISI
modifications: N-terminal acetyl (Ac-); C-terminal amide (-NH2)
binding [11]: binds | binding [6]: binds
